Data reported in PubChem BioAssay AID504834 (National Center for Advancing Translational Sciences (NCATS), 2011).
About 22,000 (6.9%) of roughly 320,000 compounds were called active. Inconclusive results, whose numbers are uncertain, are shown with a selection of clear calls. The call rests on the fitted dose curve; in most records, active means well fitted inhibition curve with a large enough effect; inconclusive means small, poorly fitted or top-dose-only effect, or another doubt; inactive means no such curve, though single readings can be large or run the other way. Potencies of inconclusive entries are doubtful fits and often do not repeat.

test: Primary qHTS for delayed death inhibitors of the malarial parasite plastid, 96 hour incubation; conditions: P. falciparum luciferase reporter growth; series mostly up to 28.7 µM; activity change, negative = inhibition: at the top concentration
Outline: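 P. falciparum expressing integrated firefly luciferase, in erythrocytes at 2% hematocrit, 0.05% parasitemia, incubated with compounds 96 h at 37 C, 5% CO2. Growth inhibition read as loss of luminescence; two-generation exposure targets delayed-death apicoplast inhibitors.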
On the % scale 0 is the no-effect control and ±100 the full control effect; potency means the concentration at half of the fitted maximal effect.

For `COCc1cc(C)nc(SCC(=O)Nc2cccc3cccnc23)c1C#N`, which Potency is on record?
Its Potency is active: 11.7 µM.

For `COc1ccc(C(=O)C(O)C(c2ccc(C)cc2)N2CCOCC2)cc1OC` (centres undefined), which “activity change, negative = inhibition” value is on record?
The value was inactive: 3.06%.

Which Potency does the source give for `CC(C)c1ccc(CN(C(=O)c2ccco2)C2CCS(=O)(=O)C2)cc1` (centres undefined) here?
Its Potency is inconclusive: 1.65 µM [inhibitor, full curve].

Which Potency does the source give for `Cn1nc(-c2ccccc2)c2cc([N+](=O)[O-])ccc21` here?
Its Potency is active: 9.28 µM.

For `C=CCNC(=S)Nc1nc2c(cc1C(=O)OCC)COC(C)(C)C2`, which “activity change, negative = inhibition” value is on record?
The value was inactive: -8.71%.

With `COc1ccccc1C1NC(=O)NC(C)=C1C(=O)Nc1cccc(C)c1C` (centres undefined) as the molecule, how does the “activity change, negative = inhibition” value read?
Its value is inactive: 32.6%.

With `O=S(=O)(NN=C1CCCCC1)c1ccccc1` as the molecule, how does the Potency read?
Its Potency is inconclusive: 0.037 µM [inhibitor, full curve, poor fit].

Which Potency does the source give for `Cc1nc2c(-c3ccc(F)cc3)cnn2c(N)c1-c1ccc(F)cc1` here?
The Potency was inconclusive: 10.4 µM [inhibitor, partial curve, poor fit].

For `C=CCNc1sc(C(=O)c2ccc(C)cc2)c(N)c1C#N`, which Potency is on record?
Its Potency is inconclusive: 5.22 µM [inhibitor, partial curve, poor fit].

With `COc1ccc(CNC(=O)c2c(-c3c(F)cccc3Cl)noc2C)cc1` as the molecule, how does the “activity change, negative = inhibition” value read?
Its value is inactive: 8.91%.

With `CNC(=S)N/N=C(\C)c1ccc(Cl)s1` as the molecule, how does the Potency read?
The Potency was inconclusive: 18.5 µM [inhibitor, single point].

With `COc1ccc(-c2nc(CS(=O)CC(=O)NCc3ccc(F)cc3)c(C)o2)cc1` (centres undefined) as the molecule, how does the Potency read?
The Potency was inconclusive: 18.5 µM [inhibitor, single point].

With `CCN(CC)S(=O)(=O)c1ccc2[nH]c(=O)cc(C(=O)NCc3ccccc3)c2c1` as the molecule, how does the “activity change, negative = inhibition” value read?
Its value is inactive: 19.5%.

With `Cc1ccc(NC(=O)c2noc3c2CCCCC3)cc1C` as the molecule, how does the Potency read?
Its Potency is inconclusive: 6.57 µM [inhibitor, partial curve].

Which Potency does the source give for `O=C(O)c1ccccc1NCc1ccsc1` here?
The Potency was inconclusive: 4.15 µM [inhibitor, partial curve, poor fit].

For `COc1ccc(NC(=O)Cc2ccsc2)cc1S(=O)(=O)N1CCOCC1`, which Potency is on record?
Its Potency is inconclusive: 16.5 µM [inhibitor, partial curve, poor fit].

Which Potency does the source give for `Cc1cc(N2CCN(CC(O)C(F)(F)F)CC2)c2ccccc2n1` (centres undefined) here?
Its Potency is inconclusive: 18.5 µM [inhibitor, single point].

For `CCCOc1ccc(-c2nc(C#N)c(N3CCN(CC)CC3)o2)cc1`, which Potency is on record?
The Potency was active: 10.4 µM.

With `O=C(Nc1nccs1)C1(S(=O)(=O)c2ccc(Cl)cc2)CC1` as the molecule, how does the “activity change, negative = inhibition” value read?
Its value is inactive: -14.9%.

For `CC(C)OP(=O)(Nc1cccc2ccccc12)OC(C)C`, which Potency is on record?
The Potency was inconclusive: 10.4 µM [inhibitor, partial curve, poor fit].

With `Cc1sc2nc(C(C)C)nc(SCC(=O)NCc3ccco3)c2c1C` as the molecule, how does the Potency read?
Its Potency is inconclusive: 4.65 µM [inhibitor, partial curve, poor fit].

For `O=C(CNC(=O)c1ccco1)NCC(=O)OCC(=O)c1ccc(Cl)c([N+](=O)[O-])c1`, which “activity change, negative = inhibition” value is on record?
Its value is inactive: 33.1%.

Which “activity change, negative = inhibition” value does the source give for `O=c1[nH]c2ccccc2nc1-c1cccs1` here?
Its value is inactive: 61%.

With `CCN(C(=O)COC(=O)/C=C/c1nc2ccccc2s1)C1CCS(=O)(=O)C1` (centres undefined) as the molecule, how does the Potency read?
The Potency was inconclusive: 0.131 µM [inhibitor, full curve].

For `CCN(C(=O)c1cc2c(s1)-c1ccccc1S(=O)(=O)C2)c1cc(OC)ccc1OC`, which Potency is on record?
Its Potency is inconclusive: 5.22 µM [inhibitor, partial curve].

With `CC(=O)NC1CC2CCCC(C1)N2S(=O)(=O)c1cccc(F)c1` (centres undefined) as the molecule, how does the Potency read?
Its Potency is active: 8.28 µM.

With `COc1ccc(CN2CC(C(=O)NCCc3ccc(Cl)cc3)CC2=O)cc1` (centres undefined) as the molecule, how does the Potency read?
Its Potency is inconclusive: 0.738 µM [inhibitor, full curve, poor fit].

Which Potency does the source give for `CCOc1ccccc1-c1nc(CN(Cc2cnn(C)c2)C(C)C)c(C)o1` here?
Its Potency is inconclusive: 13.1 µM [inhibitor, single point].

Which Potency does the source give for `CN(C(=O)COc1ccc2ccc(=O)oc2c1)C1CCS(=O)(=O)C1` (centres undefined) here?
The Potency was inconclusive: 16.5 µM [inhibitor, single point].

With `COc1ccc(/C=N/NC(=O)c2ccncc2)cc1CSc1nc2ccccc2s1` as the molecule, how does the Potency read?
Its Potency is inconclusive: 3.29 µM [inhibitor, single point].

With `CSc1ccc(CN(C)C(=O)COc2ccc(C(=O)c3ccccc3)cc2)cc1` as the molecule, how does the “activity change, negative = inhibition” value read?
Its value is inactive: 63%.

For `COc1ccccc1CN1CCC(n2nccc2NC(=O)CCOc2ccccc2)CC1`, which “activity change, negative = inhibition” value is on record?
The value was inactive: 16.4%.

For `CCOC(=O)c1sc2nc(N3CCOCC3)c3c(c2c1N)CC(C(C)C)OC3` (centres undefined), which Potency is on record?
Its Potency is inconclusive: 18.5 µM [inhibitor, single point].

For `Cc1ccc2c(c1)c(Sc1ccccc1)c(CC(=O)O)n2C`, which “activity change, negative = inhibition” value is on record?
Its value is inactive: 1.4%.

With `CCCN(CCC)C(=O)c1cc2c(=O)[nH]c3ccc(C)cc3c2s1` as the molecule, how does the “activity change, negative = inhibition” value read?
Its value is inactive: 2.22%.

With `COc1cc(/C=N/NC2=NS(=O)(=O)c3ccccc32)cc(OC)c1OC` as the molecule, how does the “activity change, negative = inhibition” value read?
Its value is inactive: 33.6%.

For `O=C(NC1CCN(CCc2c[nH]c3ccccc23)CC1)c1ccccc1`, which Potency is on record?
The Potency was active: 12 µM.

Which “activity change, negative = inhibition” value does the source give for `Cn1c2ccccc2c2nnc(SCC(N)=O)nc21` here?
The value was inactive: 0.706%.

With `COc1cccc(OC)c1C(=O)Nc1ccc2c(c1)Cc1ccccc1-2` as the molecule, how does the “activity change, negative = inhibition” value read?
The value was inactive: -1.42%.

For `CN(C)c1ccc(C=NCC2COc3ccccc3O2)cc1` (centres undefined), which “activity change, negative = inhibition” value is on record?
Its value is inactive: 29.5%.

With `Cc1occc1-c1nnc(SCC(=O)c2c(N)n(C3CC3)c(=O)[nH]c2=O)n1C` as the molecule, how does the Potency read?
The Potency was inconclusive: 14.7 µM [inhibitor, single point].

Which Potency does the source give for `COc1ccc(C)cc1NC1=C(Cl)C(=O)N(C2CCCCC2)C1=O` here?
The Potency was inconclusive: 2.94 µM [inhibitor, partial curve, poor fit].

With `CCN(C(=O)CSc1nnc(-c2ccc(F)cc2)c2ccccc12)C1CCS(=O)(=O)C1` (centres undefined) as the molecule, how does the Potency read?
Its Potency is inconclusive: 9.28 µM [inhibitor, single point].

With `NC(=S)Nc1ccc(Cl)c(Cl)c1` as the molecule, how does the “activity change, negative = inhibition” value read?
Its value is inactive: 27%.

Which Potency does the source give for `COc1ccc(CN(C)CC(=O)Nc2cc(OC)c([N+](=O)[O-])cc2C)c(OC)c1` here?
The Potency was inconclusive: 18.5 µM [inhibitor, single point].

With `Cc1cc(NC(=O)c2cc(F)c(F)cc2Cl)no1` as the molecule, how does the “activity change, negative = inhibition” value read?
The value was inactive: -4.65%.

Which Potency does the source give for `O=C(COc1ccc(Cl)cc1)Nc1cccc(S(=O)(=O)NC2=NCCCCC2)c1` here?
Its Potency is inconclusive: 11.7 µM [inhibitor, partial curve, poor fit].

For `CC(=O)c1sc(Nc2ccccn2)nc1C`, which “activity change, negative = inhibition” value is on record?
The value was inactive: -30.9%.

For `COc1ccc(S(=O)(=O)Nc2ccc(S(=O)(=O)Nc3ccc(F)cc3)cc2)cc1C`, which “activity change, negative = inhibition” value is on record?
The value was inactive: -26.8%.

Which Potency does the source give for `CCOC(=O)c1c(S(=O)(=O)N2CCc3ccccc32)c(C)n(C)c1C` here?
The Potency was inconclusive: 11.7 µM [inhibitor, single point].

With `CCCNC(=O)c1ccc2c(c1)S(=O)(=O)c1ccccc1C2=O` as the molecule, how does the Potency read?
Its Potency is inconclusive: 5.22 µM [inhibitor, partial curve].

For `CCC(CC)NC(=O)CO/N=C/c1ccc(Cl)cc1Cl`, which Potency is on record?
The Potency was inconclusive: 13.1 µM [inhibitor, partial curve, poor fit].

With `CNS(=O)(=O)c1cccc(C(=O)OCC(=O)Nc2ccc(OC)cc2[N+](=O)[O-])c1` as the molecule, how does the “activity change, negative = inhibition” value read?
The value was inactive: 23.8%.

Which “activity change, negative = inhibition” value does the source give for `Cc1nonc1OCCNCCNc1ccccc1[N+](=O)[O-]` here?
Its value is inactive: -8.52%.

For `O=S(=O)(c1ccc(F)cc1)N1CCN(S(=O)(=O)c2cccs2)CC1`, which Potency is on record?
The Potency was inconclusive: 11.7 µM [inhibitor, single point].

For `CCOC(=O)C1CCN(CC(C)(C)NS(=O)(=O)c2ccccc2)CC1`, which “activity change, negative = inhibition” value is on record?
Its value is inactive: 15.2%.

Which Potency does the source give for `Cc1ccc(C(=O)OCC(=O)c2c[nH]c3ccccc23)cc1S(=O)(=O)N1CCOCC1` here?
Its Potency is inconclusive: 18.5 µM [inhibitor, single point].

With `COc1cccc(NC(=O)CSc2nc3ccccc3c(=O)n2CCCC(=O)NCCCN2CCOCC2)c1` as the molecule, how does the Potency read?
Its Potency is inconclusive: 18.5 µM [inhibitor, single point].

For `O=c1ccc2c([nH]1)CCCCCCCCCC2`, which “activity change, negative = inhibition” value is on record?
The value was inactive: 11.8%.

For `CC(C)COC(=O)CCNc1n[nH]c(=O)[nH]c1=O`, which Potency is on record?
The Potency was active: 9.28 µM.

For `CCN(CC)S(=O)(=O)c1ccc(N2CCOCC2)c(NC(=O)COc2ccc(Cl)cc2)c1`, which Potency is on record?
The Potency was inconclusive: 8.28 µM [inhibitor, partial curve].

Which Potency does the source give for `Cc1cc(C)nc(SCC(=O)Nc2cccc(S(=O)(=O)N(C)C)c2)n1` here?
The Potency was inconclusive: 9.28 µM [inhibitor, single point].

Which Potency does the source give for `O=C(NCCc1ccccc1)C1CCC(Cn2c(=O)c3ccccc3n(Cc3cccnc3)c2=O)CC1` (centres undefined) here?
Its Potency is active: 6.57 µM.

For `Cc1cc(C)nc(N/N=C/c2ccc([N+](=O)[O-])o2)n1`, which Potency is on record?
Its Potency is active: 5.22 µM.

Which Potency does the source give for `O=C(NNS(=O)(=O)c1ccc(F)cc1)c1ccc([N+](=O)[O-])cc1Cl` here?
Its Potency is inconclusive: 13.1 µM [inhibitor, single point].

With `CCOCCCNCC(=O)NCC1CCCCC1` as the molecule, how does the “activity change, negative = inhibition” value read?
Its value is inactive: 1.32%.

Which Potency does the source give for `COC(=O)N/N=C/c1ccc([N+](=O)[O-])s1` here?
Its Potency is active: 8.28 µM.

For `CCn1c(NC(=O)/C=C/c2ccc(F)cc2)nc2ccccc21`, which Potency is on record?
The Potency was inconclusive: 2.62 µM [inhibitor, full curve, poor fit].

Which Potency does the source give for `c1cncc(-c2nc(-c3cccs3)cs2)c1` here?
Its Potency is inconclusive: 11.7 µM [inhibitor, single point].

With `COc1cc(/C=C2\SC(=S)N(CCC(=O)Nc3cccc(O)c3)C2=O)cc(OC)c1OC` as the molecule, how does the Potency read?
The Potency was inconclusive: 18.5 µM [inhibitor, single point].

Which Potency does the source give for `CCOC(=O)Cn1c(=NC(=O)C2COc3ccccc3O2)sc2cc(S(N)(=O)=O)ccc21` (centres undefined) here?
Its Potency is inconclusive: 0.329 µM [inhibitor, partial curve, poor fit].

With `COc1ccc(C2c3ccc(O)cc3Oc3ncn(Cc4ccccc4)c(=N)c32)cc1OC` (centres undefined) as the molecule, how does the Potency read?
Its Potency is inconclusive: 8.28 µM [inhibitor, partial curve, poor fit].

For `CC(C)Cn1nc(C(=O)N2CCc3ccccc32)c2ccccc2c1=O`, which Potency is on record?
Its Potency is inconclusive: 13.1 µM [inhibitor, partial curve, poor fit].

For `CCCCOC(=O)C1=C(C)NC(=O)NC1c1cccc([N+](=O)[O-])c1` (centres undefined), which “activity change, negative = inhibition” value is on record?
Its value is inactive: -57.7%.
